These are yes or no findings as the source states them, for the method shown. Binding seen in cells or lysates may run through a third protein. Here binding means that the protein was enriched with, or labelled near, the bait; the list need not be complete. Where a sequence is shown, tags or fusion partners need not be part of it.
T1: C-terminally 3xFlag-tagged Esrrb (oestrogen-related receptor beta) (mouse) (UniProt Q61539)
T1 sequence: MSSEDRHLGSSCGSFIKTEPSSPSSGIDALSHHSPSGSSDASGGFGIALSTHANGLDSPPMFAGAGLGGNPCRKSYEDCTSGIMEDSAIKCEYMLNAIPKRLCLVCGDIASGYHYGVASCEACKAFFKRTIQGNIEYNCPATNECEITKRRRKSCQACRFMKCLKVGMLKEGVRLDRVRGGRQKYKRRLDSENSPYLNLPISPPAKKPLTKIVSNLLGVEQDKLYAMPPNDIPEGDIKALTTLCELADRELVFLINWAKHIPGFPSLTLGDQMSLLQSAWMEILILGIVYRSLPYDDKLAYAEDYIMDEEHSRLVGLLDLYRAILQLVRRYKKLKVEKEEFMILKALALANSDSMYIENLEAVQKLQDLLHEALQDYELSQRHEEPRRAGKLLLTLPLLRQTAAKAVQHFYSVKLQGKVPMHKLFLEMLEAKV


target: T1, C-terminally 3xFlag-tagged Esrrb (oestrogen-related receptor beta) (mouse); experiment: affinity purification with mass spectrometry; anti-FLAG M2 agarose IP of Esrrb-3xFlag from TS cell nuclear extract dialysed to buffer D (20 mM Hepes pH 7.6, 20% glycerol, 100 mM KCl, 1.5 mM MgCl2, 0.2 mM EDTA), 3 h at 4 °C with Benzonase, elution with FLAG-tripeptide, LC-MS/MS; two biological replicates against vector control

| Binder | binding |
| --- | --- |
| Zinc-finger protein 655 (protein, UniProt Q9CZP3 1-541) MEEVTSQEAAESPRGHFQPLENQSECLSPELRFLQDTDMEQGFSGGFPISKPDGISEREQDLQVFDLESKNREVIRGDCSDGETREENKLLIPKRKISEEVHSYKVRVGKFKQDIAQVPETREVYKSEDRLERLQEILRKFLFLEREFRQITISKKTFSSEKNTEPEKSFSLDSTLDTDQRVLRIQTTDDSKYDMNFNQNPAVGEQEPINLTENFQSTDYKESLMDLSHLNKWESMPTTDRSYKCDTCGKTFHQASALTRHQRIHTREKPYKCKECEKSFSQSSSLSRHKRIHTREKSYKCEASDKSCDAPDKSCSQSSDVLQHKKGHAKAKSYKCGTCERVFSRSVHLTQHQRTHKDMSCKCTVCGSDFCHTSYLVEHQRLHHQEKSYEYDECGLAYVKQQGIRFQEKPYSCNECGKDFRLNSHLIQHQRIHTGEKLHECNECGKSFSQTSCLIQHHKMHRKEKSYEYNNYEESFSHSSDLTLQQEVPIRERVFDCDAWEENFSQRAHLIQHERVHTKEKPYECSELGETFSQVQASFNM | binds |
| Zinc-finger protein 281 (protein, UniProt Q99LI5 1-893) MKIGSGFLSGGGGPSSSGGSGSGGSSGSASGGSGGGRRAEMEPTFPQSMVMFNHRLPPVTSFTRPAGTAAPPPQCVLSSSTSAAPAAEPPPPPAPDMTFKKEPAASAAAFPSQRTSWGFLQSLVSIKQEKPADPEEQPSHHHHHHHHYGGLFAGAEERSPGLGGGEGGSHGVIQDLSLLHQHAQQQPAQHHRDVLLSSGSRTDEHGNQEPKQDANVKKAKRPKPESQGIKAKRKPSASSKPLVGEGEGAVLSPSQKPHICDHCSAAFRSSYHLRRHVLIHTGERPFQCSQCSMGFIQKYLLQRHEKIHSREKPFGCDQCSMKFIQKYHMERHKRTHSGEKPYKCDTCQQYFSRTDRLLKHRRTCGEAIAKGAASAEPGSSNHNSMGNLAVLSQGNTSSSRRKSKSKSIAIENKEHKTGKTNESQMSNNINMQSYSVEMPTVSTSGSIIGTGIDELQKRVPKLIFKKGSRKNADKSYLNFVSPLPDVVGQKSLSGKPGGSLGIVSNNSVETISLLQSTSGKQGPISSNYDDAMQFSKKRRYLPTASSNSAFSINVGHMVSQQSVIQSAGVSVLDNEAPLSLIDSSALNAEIKSCHDKSGIPDEVLQSILDQYSGKSETQKEDPFNLTEPRVDLHTSGEHSELVQEENLSPGTQTPSNDKTSMLQEYSKYLQQAFEKSTNAGFTLGHGFQFVSLSSPLHNHTLFPEKQIYTTSPLECGFGQSVTSVLPSSLPKPPFGMLFGSQPGLYLSALDATHQQLTPSQELDDLIDSQKNLETSSAFQSSSQKLTSQKEQQKNLESSTSFQIPSQELASQIDPQKDIEPRTTYQIENFAQAFGSQFKSGSRVPMTFITNSNGEVDHRVRTSVSDFSGYTNMMSDVSEPCSTRVKTPTSQSYR | binds |
| Undifferentiated embryonic cell transcription factor 1 (protein, UniProt Q6J1H4 1-339) MLLRPRRLPAFSPPSPASPDAELRSAGDVPVTTSDAFATSGGMAEPGSPKAPVSPDSAQRTPWSARETELLLGTLLQPAMWRSLLLDRRQTLPTYRRVSAALARQQVRRTPAQCRRRYKFLKDKLRDSQGQPSGPFDNQIRQLMGLLGDDGPPRVRRRSTGPGRPQRRGRSSLSALAPAPAPVEQEAELPLAAENDEPAPALRFSSSTTKSAGAHRITSSPPLTSTDTLPPEPGHTFESSPTPTPDHDVETPNEPPGLSQGRASSPQVAPQSLNTALLQTLTHLGDISTVLGPLRDQLSTLNQHVEHLRGSFDQTVSLAVGFILGSAASERGILGDLRQ | binds |
| Nuclear receptor subfamily 0 group B member 1 (protein, UniProt Q61066 1-472) MAGEDHPWQGSILYNLLMSAKQKHASQEEREVRLGAQCWGCACGAQPVLGGERLSGGQARSLLYRCCFCGENHPRQGGILYSMLTNARQPSVATQAPRARFGAPCWGCACGSAEPLVGREGLPAGQAPSLLYRCCFCGEEHPRQGSILYSLLTSAQQTHVSREAPEAHRRGEWWQLSYCTQSVGGPEGLQSTQAMAFLYRSYVCGEEQPQQISVASGTPVSADQTPATPQEQPRAPWWDASPGVQRLITLKDPQVVCEAASAGLLKTLRFVKYLPCFQILPLDQQLVLVRSCWAPLLMLELAQDHLHFEMMEIPETNTTQEMLTTRRQETEGPEPAEPQATEQPQMVSAEAGHLLPAAAVQAIKSFFFKCWSLNIDTKEYAYLKGTVLFNPDLPGLQCVKYIEGLQWRTQQILTEHIRMMQREYQIRSAELNSALFLLRFINSDVVTELFFRPIIGAVSMDDMMLEMLCAKL | binds |

More lines, now with the values ahead:

| binding | Binder |
| --- | --- |
| binds | Transcription factor CP2-like protein 1 (protein, UniProt Q3UNW5 1-479) MLFWHTQPEHYNQHNSGSYLRDVLALPIFKQEEPQLSPENGARLPPLQYVLCAATSPAVKLHEETLTYLNQGQSYEIRLLENRKLGDFQDLNTKYVKSIIRVVFHDRRLQYTEYQQLEGWRWSRPGDRILDIDIPLSVGILDPRASPTQLNAVEFLWDPSKRASAFIQVHCISTEFTPRKHGGEKGVPFRVQIDTFKQNESGDYSEHLHSASCQIKVFKPKGADRKQKTDREKMEKRTAQEKEKYQPSYETTILTECSPWPDVPYQANNTPSPSYNGSPNSFGLREGNSSPNHPVEPLPLGSDHLLPSASIQDAQQWLHRNRFSQFCWLFASFSGADLLKMSRDDLVQVCGPADGIRLFNAIKGRNVRPKMTIYVCQELEQNQLPLPQKQDDSGDNSLCVYHAIFLEELTTLELTEKIASLYSIPPQHIHRVYRQGPAGIHVVVSNEMVQNFQDESCFILSTLKAESNDGYHIILKCGL |
| binds | Zinc-finger protein 687 (protein, UniProt Q9D2D7 1-1237) MGDMKTPDFDDLLAAFDIPDIDANEAIHSGPEENEGPGGQGKPEPSVGGDSKDREEAAAAENDPESPAEASDHGLPQPPDTSTVSVIVKNTVCPEQSESLTGDSGEEETKAGGITKEGPVGSCLMQNGFGGPEPSLSENPHSSAHASGNAWKDKAVEGKTCLDLFAHFGSEPGDHPDPLPPEPSQPRGGDMAPPPFSTPFELAPENGSTLLPPASLLPQGALKQESCSPHHSQGLTQRGPGSSPETAGIPASVSPPQVAGVSFKQSPGHQSPPASPVKAPSCKPLKEEDEGTVDKSPPRSPQSPSSGAEAADEDSNDSPTSSSSSRPLKVRIKTIKTSCGNITRTVTRVPSEPDPPAPLAEGAFLAETSFLKLSPVTPTPEGPKVVSVQLGDGTRLKGTVLPVATIQNASTAMLMAASVARKAVVLPGGNATSPKTMTKSVLGLVPQTLPKAEVRTGFSLGGQKVNGASVVMVQPSKSATGPGTAGGSVISRTQSSLVEAFNKILNSKNLLPAYRPNLSPPAEAGLALPPTGYRCLECGDAFSLEKSLARHYDRRSMRIEVTCNHCARRLVFFNKCSLLLHAREHKDKGLVMQCSHLVMRPVALDQMVGQPDITPLLPVAVPPVPGPLALPVLGKGEGAVTSSTITTVATEAPVLPLPTEPPAPPTASVYTCFRCLECKEQCRDKAGMAAHFQQLGPPALGSTSNVCPSCPMMLPNRCSFSAHQRTHKNRAPHVCPECGGNFLQANFQTHLREACLHFSRRVGYRCPSCAVVFGGVNSIKSHIQASHCEVFHKCPICPMAFKSAPSAHAHLYSQHPSFLTQQAKLIYKCAMCDTVFTHKPLLSSHFDQHLLPQRVSVFKCPSCPLLFAQKRTMLEHLKNTHQSGRVGEEAVGKGAGGALLTPKTEPEELAVSQAEAAPATEESSSSSEEELPSSPEPPRPTKRARRGELGNKGIKGGGGGPGGWTCGLCHSWCPERDEYVTHMKKEHGKSVKKFPCRLCERSFCSAPSLRRHVRVNHEGIKRVYPCRYCTEGKRTFSSRLILEKHVQVRHGLPLGTQSSGRGGSLARGSGGRAQGPGRKRRQSSDSCSEEPDSTTPPAKSLRGGPGSGGHGPLRYRSSGSAEQSLVGLRVDGGTQQCLDCGLCFASPGSLSRHRFISHKKRRAGGKASVLGLGDGEEAAPPLRSDPEGGDSPLPAPGDPLTCKVCGKSCDSPLNLKTHFRTHGMAFIRARQGGSGDN |
| binds | Zinc-finger protein 592 (protein, UniProt Q8BHZ4 1-1262) MGDMKTPDFDDLLAAFDIPDPTSLDAKEAIQAPSEENESPLKSSGMCIDENVSLSHSGSAPDVPAVSVIVKNTSRQESFEAEKDHIAPSLLHNGFRGSDLPPDSHHCGKFDSTFINGDSARSFTSKLEPSKSEPLPTFNQFSPISSPEPEDPVKDNGFGIKSKHSDSYFPPPPGTVGGPVLEALSKFPVPELHMFDHFCKKEPKPEPLPLESQQEHEQGGQKVVEPHKDLDSSRFFGEALEFNSHPSNSIGEPKKLAPELSACSSVPPRQRLKPAHSKLSSCVAALVALQAKRVANVTKEDQPGHTKDSSGPTKEGSKGSPKMPKSPKSPRSPLEATRKSIKPSDSPRSICSDSSSKGSPSVAASSPPAIPKVRIKTIKTSSGEIKRTVTRILPDPDDPSKSPAESPAGSTITEAPSEAPGDEGTAMPVEEHFSEAGIHSGSPQGDRKGDENMIKTSDSSSPCRISGSRVPKGSALNSQASKKQQSTAPQASTPAASLLPKAVHLANLNLVPHSVAASVTAKSSAQRRSQPQVTQMTVPLVHQVKKAAPLIVEVFNKVLHSSNPVPLYAPNLSPPADSRIHVPASGYCCLECGDAFALEKSLSQHYSRRSVHIEVLCTLCSKTLLFFNKCSLLRHARDHKSKGLVMQCSQLLVKPISADQMFVAAPVNSTAPATPAASSSPKPSPTLDNASSVIPALPLYPDPVRLIRYGTKCPECHKQMRDYMVLATHFQRTTEETEGLTCQVCQMLLPNQCSFCAHQRIHAHKSPYCCPECGVLCRSAYFQTHVKENCLHYARKVGYRCIHCGVIHLTLALLKSHIQERHCQVFHKCAFCPMAFKTASSTMDHSTTQHPTQPHKPSQLIYKCSCEMVFNKKRHIQQHFYQNVSKTQAGVFKCPECPLLFLQKPELMQHVKNTHGVPRNVEELSSLQSSTDTSSNRPGSRAPAEPPATNVAARGSSLTAGRWGRPEAHRRAEARPRMRSTGWTCQECQEWVPDRESYVSHMKKSHGRTLKRYPCRQCEQSFHNPSSLRKHIRNNHDTVKKVYTCGYCTEDSPSFPRPSLLESHISLMHGIRNPDLSQTSKVRHPGGPSPQVNHLKRPVSRMADAPGTSNGATVSSTKRHKSLFQCAKCTFATDSELEFQSHIPQHQVDSSTAQCLLCGLCYTSTSSLNRHLFIVHKVRDQEEGGEDIVEVKVEAPDSEACSGEEVAMETKENGLEECASEPLVTDLGGQQGLALDEDSAQDPQNQPQASQDQNSHALSPQV |
| binds | Transcription factor jun-B (protein, UniProt P09450 1-344) MCTKMEQPFYHDDSYAAAGYGRSPGSLSLHDYKLLKPTLALNLADPYRGLKGPGARGPGPEGSGAGSYFSGQGSDTGASLKLASTELERLIVPNSNGVITTTPTPPGQYFYPRGGGSGGGTGGGVTEEQEGFADGFVKALDDLHKMNHVTPPNVSLGASGGPQAGPGGVYAGPEPPPVYTNLSSYSPASAPSGGSGTAVGTGSSYPTATISYLPHAPPFAGGHPAQLGLSRGASAFKEEPQTVPEARSRDATPPVSPINMEDQERIKVERKRLRNRLAATKCRKRKLERIARLEDKVKTLKAENAGLSSAAGLLREQVAQLKQKVMTHVSNGCQLLLGVKGHAF |

Reference: PMC4525203
